Data taken from paper doi:10.1101/2021.04.12.439405 (bioRxiv, 2021).
Results are given in words; binding and its absence hold for the method and conditions named. Some binding calls cover weakened binding; strength is not graded here. Sequences can lack the tags named with a protein.

Target: T1, MukB-His (wild type MukB) (E. coli, UniProt P22523 1-1486)
T1 sequence (looked up): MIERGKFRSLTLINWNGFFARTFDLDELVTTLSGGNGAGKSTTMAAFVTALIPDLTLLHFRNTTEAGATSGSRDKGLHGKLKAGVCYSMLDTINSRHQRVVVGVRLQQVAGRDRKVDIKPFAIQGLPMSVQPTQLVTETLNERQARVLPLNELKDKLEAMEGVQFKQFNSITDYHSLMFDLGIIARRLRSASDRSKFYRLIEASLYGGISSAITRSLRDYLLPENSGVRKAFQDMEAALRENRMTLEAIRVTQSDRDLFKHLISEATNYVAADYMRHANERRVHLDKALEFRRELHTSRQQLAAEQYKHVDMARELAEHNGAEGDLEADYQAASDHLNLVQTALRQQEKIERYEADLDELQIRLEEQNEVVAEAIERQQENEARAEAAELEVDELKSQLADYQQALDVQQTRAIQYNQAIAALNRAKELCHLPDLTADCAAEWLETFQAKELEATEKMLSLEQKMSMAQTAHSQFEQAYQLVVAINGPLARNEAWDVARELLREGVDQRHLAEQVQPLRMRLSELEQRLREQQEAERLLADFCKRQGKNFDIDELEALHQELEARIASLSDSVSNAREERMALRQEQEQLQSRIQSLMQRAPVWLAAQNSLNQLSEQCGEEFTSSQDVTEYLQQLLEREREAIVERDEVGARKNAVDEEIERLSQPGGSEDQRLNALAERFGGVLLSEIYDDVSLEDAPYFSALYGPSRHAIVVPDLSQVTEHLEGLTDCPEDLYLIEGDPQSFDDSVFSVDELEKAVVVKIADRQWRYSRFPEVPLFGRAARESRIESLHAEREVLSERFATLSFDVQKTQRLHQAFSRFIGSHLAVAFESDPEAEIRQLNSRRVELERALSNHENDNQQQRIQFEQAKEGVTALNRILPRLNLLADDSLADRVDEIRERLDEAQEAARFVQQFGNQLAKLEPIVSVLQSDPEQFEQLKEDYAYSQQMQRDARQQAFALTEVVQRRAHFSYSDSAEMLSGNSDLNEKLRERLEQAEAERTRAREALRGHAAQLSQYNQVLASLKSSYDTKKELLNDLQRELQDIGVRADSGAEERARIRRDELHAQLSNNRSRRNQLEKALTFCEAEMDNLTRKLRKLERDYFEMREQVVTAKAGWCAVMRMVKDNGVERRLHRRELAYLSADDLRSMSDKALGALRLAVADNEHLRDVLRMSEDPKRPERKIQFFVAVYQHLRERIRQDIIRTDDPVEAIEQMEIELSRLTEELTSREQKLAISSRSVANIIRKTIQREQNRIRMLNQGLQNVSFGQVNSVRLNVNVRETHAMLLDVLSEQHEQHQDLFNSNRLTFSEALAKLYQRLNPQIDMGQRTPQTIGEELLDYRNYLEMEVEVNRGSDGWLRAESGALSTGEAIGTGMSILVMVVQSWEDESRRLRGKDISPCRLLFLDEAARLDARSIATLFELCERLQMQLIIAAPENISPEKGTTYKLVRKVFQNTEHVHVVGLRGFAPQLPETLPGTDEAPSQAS
Assay: co-purification

- binding: binds
B1: His-MukF (natural protein, E. coli, UniProt P60293 1-440, looked up)
chain: MSEFSQTVPELVAWARKNDFSISLPVDRLSFLLAVATLNGERLDGEMSEGELVDAFRHVSDAFEQTSETIGVRANNAINDMVRQRLLNRFTSEQAEGNAIYRLTPLGIGITDYYIRQREFSTLRLSMQLSIVAGELKRAADAAEEGGDEFHWHRNVYAPLKYSVAEIFDSIDLTQRLMDEQQQQVKDDIAQLLNKDWRAAISSCELLLSETSGTLRELQDTLEAAGDKLQANLLRIQDATMTHDDLHFVDRLVFDLQSKLDRIISWGQQSIDLWIGYDRHVHKFIRTAIDMDKNRVFAQRLRQSVQTYFDEPWALTYANADRLLDMRDEEMALRDEEVTGELPEDLEYEEFNEIREQLAAIIEEQLAVYKTRQVPLDLGLVVREYLSQYPRARHFDVARIVIDQAVRLGVAQADFTGLPAKWQPINDYGAKVQAHVIDKY
